# Experimental data as given in the supplement of paper PMC8728848.
# The list shows a part of the results.
# What was measured:
# Assay in all cases: glycan array binding signal (z-score within array); higher = stronger binding
# Details in all cases: glycan notation: IUPAC condensed, linker removed
# GlcNAc(b1-3)Gal(b1-4)Glc = molecular target: GlcNAc(b1-3)Gal(b1-4)Glc
# How it was run: (§1)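 The Consortium for Functional Glycomics database supplied 3228 glycan arrays, of which those lacking an available protein sequence were dropped. The binding signal, a within-array Z-score, was averaged across arrays of the same protein sequence and across linkers. Negative scores can be read as non-binding.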
# [1] = molecular target: GlcNAc(b1-3)Gal(b1-4)GlcNAc
# How it was run: as §1
# [2] = molecular target: GlcNAc(b1-3)Gal(b1-4)GlcNAc(b1-2)Man(a1-3)[GlcNAc(b1-3)Gal(b1-4)GlcNAc(b1-2)Man(a1-6)]Man(b1-4)GlcNAc(b1-4)GlcNAc
# How it was run: as §1
# [3] = molecular target: GlcNAc(b1-3)Gal(b1-4)GlcNAc(b1-2)Man(a1-3)[GlcNAc(b1-3)Gal(b1-4)GlcNAc(b1-2)Man(a1-6)]Man(b1-4)GlcNAc(b1-4)[Fuc(a1-6)]GlcNAc
# How it was run: as §1
# [4] = molecular target: GlcNAc(b1-3)Gal(b1-4)GlcNAc(b1-2)[GlcNAc(b1-3)Gal(b1-4)GlcNAc(b1-6)]Man(a1-6)[GlcNAc(b1-3)Gal(b1-4)GlcNAc(b1-2)Man(a1-3)]Man(b1-4)GlcNAc(b1-4)GlcNAc
# How it was run: as §1
# [5] = molecular target: GlcNAc(b1-3)Gal(b1-4)GlcNAc(b1-3)Gal(b1-4)GlcNAc
# How it was run: as §1
# [6] = molecular target: GlcNAc(b1-3)Gal(b1-4)GlcNAc(b1-3)Gal(b1-4)GlcNAc(b1-2)Man(a1-3)[GlcNAc(b1-3)Gal(b1-4)GlcNAc(b1-3)Gal(b1-4)GlcNAc(b1-2)Man(a1-6)]Man(b1-4)GlcNAc(b1-4)GlcNAc
# How it was run: as §1
# [7] = molecular target: GlcNAc(b1-3)Gal(b1-4)GlcNAc(b1-3)Gal(b1-4)GlcNAc(b1-2)Man(a1-3)[GlcNAc(b1-3)Gal(b1-4)GlcNAc(b1-3)Gal(b1-4)GlcNAc(b1-2)Man(a1-6)]Man(b1-4)GlcNAc(b1-4)[Fuc(a1-6)]GlcNAc
# How it was run: as §1
# [8] = molecular target: GlcNAc(b1-3)Gal(b1-4)GlcNAc(b1-3)Gal(b1-4)GlcNAc(b1-2)[GlcNAc(b1-3)Gal(b1-4)GlcNAc(b1-3)Gal(b1-4)GlcNAc(b1-6)]Man(a1-6)[GlcNAc(b1-3)Gal(b1-4)GlcNAc(b1-3)Gal(b1-4)GlcNAc(b1-2)Man(a1-3)]Man(b1-4)GlcNAc(b1-4)[Fuc(a1-6)]GlcNAc
# How it was run: as §1
# [9] = molecular target: GlcNAc(b1-3)Gal(b1-4)GlcNAc(b1-3)Gal(b1-4)GlcNAc(b1-3)Gal(b1-4)GlcNAc(b1-2)Man(a1-3)[GlcNAc(b1-3)Gal(b1-4)GlcNAc(b1-3)Gal(b1-4)GlcNAc(b1-3)Gal(b1-4)GlcNAc(b1-2)Man(a1-6)]Man(b1-4)GlcNAc(b1-4)GlcNAc
# How it was run: as §1
# [10] = molecular target: GlcNAc(b1-3)Gal(b1-4)GlcNAc(b1-3)Gal(b1-4)GlcNAc(b1-3)Gal(b1-4)GlcNAc(b1-2)Man(a1-3)[GlcNAc(b1-3)Gal(b1-4)GlcNAc(b1-3)Gal(b1-4)GlcNAc(b1-3)Gal(b1-4)GlcNAc(b1-2)Man(a1-6)]Man(b1-4)GlcNAc(b1-4)[Fuc(a1-6)]GlcNAc
# How it was run: as §1
# [11] = molecular target: GlcNAc(b1-3)Gal(b1-4)GlcNAc(b1-3)Gal(b1-4)GlcNAc(b1-3)Gal(b1-4)GlcNAc(b1-2)[GlcNAc(b1-3)Gal(b1-4)GlcNAc(b1-3)Gal(b1-4)GlcNAc(b1-3)Gal(b1-4)GlcNAc(b1-6)]Man(a1-6)[GlcNAc(b1-3)Gal(b1-4)GlcNAc(b1-3)Gal(b1-4)GlcNAc(b1-3)Gal(b1-4)GlcNAc(b1-2)Man(a1-3)]Man(b1-4)GlcNAc(b1-4)[Fuc(a1-6)]GlcNAc
# How it was run: as §1
# [12] = molecular target: GlcNAc(b1-3)Gal(b1-4)GlcNAc(b1-3)Gal(b1-4)GlcNAc(b1-3)Gal(b1-4)GlcNAc(b1-3)Gal(b1-4)GlcNAc(b1-2)Man(a1-3)[GlcNAc(b1-3)Gal(b1-4)GlcNAc(b1-3)Gal(b1-4)GlcNAc(b1-3)Gal(b1-4)GlcNAc(b1-3)Gal(b1-4)GlcNAc(b1-2)Man(a1-6)]Man(b1-4)GlcNAc(b1-4)GlcNAc
# How it was run: as §1
# [13] = molecular target: GlcNAc(b1-3)Gal(b1-4)GlcNAc(b1-3)Gal(b1-4)GlcNAc(b1-3)Gal(b1-4)GlcNAc(b1-3)Gal(b1-4)GlcNAc(b1-2)Man(a1-3)[GlcNAc(b1-3)Gal(b1-4)GlcNAc(b1-3)Gal(b1-4)GlcNAc(b1-3)Gal(b1-4)GlcNAc(b1-3)Gal(b1-4)GlcNAc(b1-2)Man(a1-6)]Man(b1-4)GlcNAc(b1-4)[Fuc(a1-6)]GlcNAc
# How it was run: as §1
# [14] = molecular target: GlcNAc(b1-3)Gal(b1-4)GlcNAc(b1-3)Gal(b1-4)GlcNAc(b1-3)Gal(b1-4)GlcNAc(b1-3)Gal(b1-4)GlcNAc(b1-2)[GlcNAc(b1-3)Gal(b1-4)GlcNAc(b1-3)Gal(b1-4)GlcNAc(b1-3)Gal(b1-4)GlcNAc(b1-3)Gal(b1-4)GlcNAc(b1-6)]Man(a1-6)[GlcNAc(b1-3)Gal(b1-4)GlcNAc(b1-3)Gal(b1-4)GlcNAc(b1-3)Gal(b1-4)GlcNAc(b1-3)Gal(b1-4)GlcNAc(b1-2)Man(a1-3)]Man(b1-4)GlcNAc(b1-4)[Fuc(a1-6)]GlcNAc
# How it was run: as §1
# [15] = molecular target: GlcNAc(b1-3)Gal(b1-4)GlcNAc(b1-3)Gal(b1-4)GlcNAc(b1-3)GalNAc
# How it was run: as §1
# [16] = molecular target: GlcNAc(b1-3)Gal(b1-4)GlcNAc(b1-3)GalNAc
# How it was run: as §1
# [17] = molecular target: GlcNAc(b1-3)Gal(b1-4)GlcNAc(b1-3)[GlcNAc(b1-3)Gal(b1-4)GlcNAc(b1-3)]GalNAc
# How it was run: as §1
# [18] = molecular target: GlcNAc(b1-3)Gal(b1-4)GlcNAc(b1-6)[Gal(b1-3)]GalNAc
# How it was run: as §1
# [19] = molecular target: GlcNAc(b1-3)Gal(b1-4)GlcNAc(b1-6)[GlcNAc(b1-3)Gal(b1-3)]GalNAc
# How it was run: as §1
# [20] = molecular target: GlcNAc(b1-3)Gal(b1-4)GlcNAc(b1-6)[GlcNAc(b1-3)]Gal(b1-4)GlcNAc
# How it was run: as §1
# GlcNAc(b1-3)GalNAc = molecular target: GlcNAc(b1-3)GalNAc
# How it was run: as §1
# GlcNAc(b1-3)Man = molecular target: GlcNAc(b1-3)Man
# How it was run: as §1
# [21] = molecular target: GlcNAc(b1-3)[GlcNAc(b1-4)][GlcNAc(b1-6)]GlcNAc
# How it was run: as §1
# [22] = molecular target: GlcNAc(b1-3)[GlcNAc(b1-6)]Gal(b1-4)GlcNAc
# How it was run: as §1
# [23] = molecular target: GlcNAc(b1-3)[GlcNAc(b1-6)]GalNAc
# How it was run: as §1
# [24] = molecular target: GlcNAc(b1-4)Gal(b1-4)GlcNAc
# How it was run: as §1
# GlcNAc(b1-4)GlcNAc = molecular target: GlcNAc(b1-4)GlcNAc
# How it was run: as §1
# [25] = molecular target: GlcNAc(b1-4)GlcNAc(b1-4)GlcNAc
# How it was run: as §1
# [26] = molecular target: GlcNAc(b1-4)GlcNAc(b1-4)GlcNAc(b1-4)GlcNAc(b1-4)GlcNAc
# How it was run: as §1
# [27] = molecular target: GlcNAc(b1-4)GlcNAc(b1-4)GlcNAc(b1-4)GlcNAc(b1-4)GlcNAc(b1-4)GlcNAc
# How it was run: as §1
# [28] = molecular target: GlcNAc(b1-4)[GlcNAc(b1-6)]GalNAc
# How it was run: as §1
# [29] = molecular target: GlcNAc(b1-6)Gal(b1-4)GlcNAc
# How it was run: as §1
# GlcNAc(b1-6)GalNAc = molecular target: GlcNAc(b1-6)GalNAc
# How it was run: as §1
# [30] = molecular target: GlcNAc6S(b1-3)Gal(b1-4)GlcNAc
# How it was run: as §1
# Kdn(a2-3)Gal(b1-3)GalNAc = molecular target: Kdn(a2-3)Gal(b1-3)GalNAc
# How it was run: as §1
# Kdn(a2-3)Gal(b1-3)GlcNAc = molecular target: Kdn(a2-3)Gal(b1-3)GlcNAc
# How it was run: as §1
# Kdn(a2-3)Gal(b1-4)Glc = molecular target: Kdn(a2-3)Gal(b1-4)Glc
# How it was run: as §1
# Kdn(a2-3)Gal(b1-4)GlcNAc = molecular target: Kdn(a2-3)Gal(b1-4)GlcNAc
# How it was run: as §1
# [31] = molecular target: Kdn(a2-3)Gal(b1-4)[Fuc(a1-3)]GlcNAc
# How it was run: as §1
# Kdn(a2-6)Gal(b1-4)GlcNAc = molecular target: Kdn(a2-6)Gal(b1-4)GlcNAc
# How it was run: as §1
# [32] = molecular target: Man(a1-2)Man(a1-2)Man(a1-3)Man
# How it was run: as §1
# [33] = molecular target: Man(a1-2)Man(a1-2)Man(a1-6)[Man(a1-3)]Man
# How it was run: as §1
# Man(a1-2)Man(a1-3)Man = molecular target: Man(a1-2)Man(a1-3)Man
# How it was run: as §1
# [34] = molecular target: Man(a1-2)Man(a1-3)[Man(a1-2)Man(a1-6)]Man
# How it was run: as §1
binder,measurement,setting,value
Vd7LysM (Verticillium dahliae) (protein) RRGPEPKYPPAAGTSSYCSYWVDYEGDKSCSRVLEDNVVVLKDFARWNPTVGADCSGIKAGNSYCVEAFGEPEPIEVTTTTRAATTTTQPTATTTTFANGIATPQPTQSGMVTNCNKFHWIAEGVSCSQVISFQKITLADFVKWNPSVKSDCSGMWAGVNVCVGVVGSSTDTAKPTTTAPSNGVVTPQPTQPSMVTNCNKFHWIAKGVTCQQVISYQKISLADFVKWNPSVLSDCSGMWAEVQVCVGVIGSTPTTLATTTTTAGNGVSTPLPTQPGMVTNCAKFHWVAKGVTCNQIYSFQKITLEQFVSYNPTVKSDCSGMQAEVQVCVGLIAGTTPTTTRPPTTTAPGNGVSTPQPTQPGMVTNCAKFHWVAKGVTCNQIYSFQKITLEQFVSFNPTVKSDCTGMQAEVNVCVGLIGGNPTPTQTGNGIATPTPIQPGMVSNCKKFHWIAQGVTCQQVISFQKITLADFVKWNTGVGSDCRTMWAETNVCVGV,glycan array binding signal (z-score),GlcNAc(b1-3)Gal(b1-4)Glc,1.05
same,glycan array binding signal (z-score),[1],0.117
same,glycan array binding signal (z-score),[2],2.67
same,glycan array binding signal (z-score),[3],0.334
same,glycan array binding signal (z-score),[4],0.139
same,glycan array binding signal (z-score),[5],1.61
same,glycan array binding signal (z-score),[6],1.16
same,glycan array binding signal (z-score),[7],-0.929
same,glycan array binding signal (z-score),[8],2.72
same,glycan array binding signal (z-score),[9],-1.02
same,glycan array binding signal (z-score),[10],0.992
same,glycan array binding signal (z-score),[11],2.29
same,glycan array binding signal (z-score),[12],-0.184
same,glycan array binding signal (z-score),[13],0.619
same,glycan array binding signal (z-score),[14],2.34
same,glycan array binding signal (z-score),[15],0.041
same,glycan array binding signal (z-score),[16],-1.01
same,glycan array binding signal (z-score),[17],0.165
same,glycan array binding signal (z-score),[18],0.419
same,glycan array binding signal (z-score),[19],-0.734
same,glycan array binding signal (z-score),[20],0.313
same,glycan array binding signal (z-score),GlcNAc(b1-3)GalNAc,-1.38
same,glycan array binding signal (z-score),GlcNAc(b1-3)Man,0.604
same,glycan array binding signal (z-score),[21],-0.865
same,glycan array binding signal (z-score),[22],0.506
same,glycan array binding signal (z-score),[23],0.981
same,glycan array binding signal (z-score),[24],0.04
same,glycan array binding signal (z-score),GlcNAc(b1-4)GlcNAc,-0.831
same,glycan array binding signal (z-score),[25],-0.545
same,glycan array binding signal (z-score),[26],2.03
same,glycan array binding signal (z-score),[27],2.3
same,glycan array binding signal (z-score),[28],-1.4
same,glycan array binding signal (z-score),[29],1.37
same,glycan array binding signal (z-score),GlcNAc(b1-6)GalNAc,-0.499
same,glycan array binding signal (z-score),[30],0.676
same,glycan array binding signal (z-score),Kdn(a2-3)Gal(b1-3)GalNAc,3.09
same,glycan array binding signal (z-score),Kdn(a2-3)Gal(b1-3)GlcNAc,0.51
same,glycan array binding signal (z-score),Kdn(a2-3)Gal(b1-4)Glc,0.199
same,glycan array binding signal (z-score),Kdn(a2-3)Gal(b1-4)GlcNAc,-0.6
same,glycan array binding signal (z-score),[31],-0.911
same,glycan array binding signal (z-score),Kdn(a2-6)Gal(b1-4)GlcNAc,-0.881
same,glycan array binding signal (z-score),[32],-0.139
same,glycan array binding signal (z-score),[33],1.74
same,glycan array binding signal (z-score),Man(a1-2)Man(a1-3)Man,-0.119
same,glycan array binding signal (z-score),[34],0.727

# Pulled one by one from the list above (two):
binder,measurement,setting,value
Vd7LysM (Verticillium dahliae) (protein) RRGPEPKYPPAAGTSSYCSYWVDYEGDKSCSRVLEDNVVVLKDFARWNPTVGADCSGIKAGNSYCVEAFGEPEPIEVTTTTRAATTTTQPTATTTTFANGIATPQPTQSGMVTNCNKFHWIAEGVSCSQVISFQKITLADFVKWNPSVKSDCSGMWAGVNVCVGVVGSSTDTAKPTTTAPSNGVVTPQPTQPSMVTNCNKFHWIAKGVTCQQVISYQKISLADFVKWNPSVLSDCSGMWAEVQVCVGVIGSTPTTLATTTTTAGNGVSTPLPTQPGMVTNCAKFHWVAKGVTCNQIYSFQKITLEQFVSYNPTVKSDCSGMQAEVQVCVGLIAGTTPTTTRPPTTTAPGNGVSTPQPTQPGMVTNCAKFHWVAKGVTCNQIYSFQKITLEQFVSFNPTVKSDCTGMQAEVNVCVGLIGGNPTPTQTGNGIATPTPIQPGMVSNCKKFHWIAQGVTCQQVISFQKITLADFVKWNTGVGSDCRTMWAETNVCVGV,glycan array binding signal (z-score),[32],-0.139
same,glycan array binding signal (z-score),[21],-0.865
